Laboratory results: patent US12617831B2 (UNIVERSITE D'ANGERS, priority 2019, dated 2026)
At least one structure is not confirmed: it was looked up by name or label, or the drawing left a doubt.

Key:
[1] = tested on: ovariectomy-induced bone loss in mice; assay: Trabecular bone strength, compression test of second lumbar vertebra, ovariectomized mice; assay type: in vivo; conditions: OVX mice, vs vehicle; GL-0001 25, GL-0007 25 and 100 nmoles/kg/day; zoledronic acid once 100 μg/kg
Experimental: At 16 weeks of age, ALZET osmotic pumps (model number 2006, Durect Corp., Cupertino, CA) filled with the below saline or peptide were implanted subcutaneously between the two scapula under general anesthesia in 32 mice. Successful filling of pumps was verified by weighting the pump before and after filling. At 20 weeks of age, ALZET osmotic pumps were replaced by similar pumps to ensure delivery for four new weeks. […] This dose and regimen of zoledronic acid was equivalent to the 5 mg infusion approved for the treatment of post-menopausal osteoporosis in humans. Compression experiments were performed on L2. Briefly, vertebral bodies were carefully dissected and glued with cyanoacrylate glue on a Plexiglas plate and then incubated in saline at 4° C. until use the next day. L2 vertebral bodies were compressed to failure at a displacement rate of 1 mm/min using an Instron 5942 device. Load and displacement of the upper plateau were recorded at a sampling rate of 100 Hz. Maximum load and stiffness were computerized from load-displacement curves.

[2] = tested on: ovariectomy-induced bone loss in mice; assay: Cortical bone microarchitecture, microCT of femur, ovariectomized mice; assay type: in vivo; conditions: OVX mice, femur 4 mm above distal growth plate; peptides 25 or 100 nmoles/kg/day; zoledronic acid once 100 μg/kg iv

O=P(O)(O)C(O)(Cn1ccnc1)P(=O)(O)O [zoledronic acid]
bone stiffness, compression of second lumbar vertebra [1]: significantly reduced
cortical bone microarchitecture [2]: None of the vehicle, double analogues or zoledronic acid were capable of affecting
